End groups of sequences in plain letters are not given here.
Test: general procedure: Boc solid-phase peptide synthesis; peptidylglycine a-amidating monooxygenase resins
Conditions: whole synthesis, homogeneity by HPLC, C18 μBondapak

KYGRRGDS
purity (crude or final not stated): >85%

From US5204445A (The Scripps Research Institute, priority 1989, dated 1993)
